Assay results reported in the supplement of paper PMC3682954.
“And” between values parts separate entries of the source, which are not always exact repeats. Equal values may be shown once. Where a name gives a salt, the structure may show the parent alone. ± gives the standard deviation of the averaged measurements. Some of the results follow. Many values rest on one well or one pass, so single values are uncertain.

System: RAW 264.7
Assay: cell viability (MTT) relative to vehicle control; higher = more viable cells
Settings: stimulus: HMGB1 5 ug/ml, 18 h
[1] = compound concentration: 1 ug/ml

Row | SMILES | cell viability (compound concentration: 3 uM) | cell viability [1] [%]
1 | O=C(O)C(=O)O.[NH-][C@@H]1CCCC[C@H]1[NH-].[Pt+2] [Oxaliplatin] | 93.8% | 
2 | O=C(C1CCCCC1)N1CC(=O)N2CCc3ccccc3C2C1 (stereo not given) [Praziquantel] | 98.6 ± 5% | 
3 | O=C(C1CCCCC1)N1CC(=O)N2CCc3ccccc3C2C1 (stereo not given) | 102% | 
4 | CO[C@H]1/C=C/O[C@@]2(C)Oc3c(C)c(O)c4c(O)c(cc(O)c4c3C2=O)NC(=O)/C(C)=C\C=C\[C@H](C)[C@H](O)[C@@H](C)[C@@H](O)[C@@H](C)[C@H](OC(C)=O)[C@@H]1C | 95.3% | 
5 | CO[C@H]1/C=C/O[C@@]2(C)Oc3c(C)c(O)c4c(O)c(cc(O)c4c3C2=O)NC(=O)/C(C)=C\C=C\[C@H](C)[C@H](O)[C@@H](C)[C@@H](O)[C@@H](C)[C@H](OC(C)=O)[C@@H]1C [Rifamycin SV sodium salt] |  | 105
6 | C(=C\c1ccccc1)/CN1CCN(C(c2ccccc2)c2ccccc2)CC1 [Cinnarizine] | 98.7 ± 6% | 
7 | COc1ccc(-c2cc(=O)c3c(O)c(OC)c(O[C@@H]4O[C@H](CO[C@@H]5O[C@@H](C)[C@H](O)[C@@H](O)[C@H]5O)[C@@H](O)[C@H](O)[C@H]4O)cc3o2)cc1 [Pectolinarin] |  | 109
8 | CCOC(=O)C1(CCCCCCOc2ccc(Cl)cc2)CO1 (stereo not given) | 100% | 
9 | COc1ccc(-c2cc(=O)c3ccc4ccccc4c3o2)cc1OC [3',4'-Dimethoxy-a-naphthoflavone] |  | 80.8
10 | COc1ccc2c(c1)c(CC(=O)O)c(C)n2C(=O)c1ccc(Cl)cc1 | 97% | 
11 | COc1ccc2c(c1)c(CC(=O)O)c(C)n2C(=O)c1ccc(Cl)cc1 [Indomethacin] | 96.8 ± 5.8% | 
12 | Nc1nc2ccc(OC(F)(F)F)cc2s1 [Riluzole] | 104 ± 15% | 
13 | Nc1nc2ccc(OC(F)(F)F)cc2s1 [Riluzole hydrochloride] | 105% | 
14 | O=C(O)c1cc(=O)cc(C(=O)O)[nH]1 [Chelidamic acid] | 95.7% | 
15 | OC[C@H]1O[C@H](O[C@]2(CCl)O[C@H](CCl)[C@@H](O)[C@@H]2O)[C@H](O)[C@@H](O)[C@H]1Cl | 97% | 
16 | CC(C)C[C@H](NC(=O)[C@H](O)[C@H](N)Cc1ccccc1)C(=O)O [Epibestatin hydrochloride] | 96.1% | 
17 | C=C1c2c(Cl)ccc(O)c2C(=O)C2=C(O)[C@]3(O)C(=O)C(C(N)=O)=C(O)[C@@H](N(C)C)[C@@H]3[C@@H](O)[C@H]12.O=C(O)c1cc(S(=O)(=O)O)ccc1O | 106% | 
18 | C=C1c2c(Cl)ccc(O)c2C(=O)C2=C(O)[C@]3(O)C(=O)C(C(N)=O)=C(O)[C@@H](N(C)C)[C@@H]3[C@@H](O)[C@H]12.O=C(O)c1cc(S(=O)(=O)O)ccc1O [Meclocycline sulfosalicylate] | 106% | 
19 | CC(C)(C)NCC(O)COc1cccc2c1CCC(=O)N2 (stereo not given) [Carteolol hydrochloride] | 108% | 
20 | CCOC(=O)O[C@]1(C(=O)COC(=O)CC)CC[C@H]2[C@@H]3CCC4=CC(=O)C=C[C@]4(C)[C@H]3[C@@H](O)C[C@@]21C [Prednicarbate] | 96.5% | 
21 | CCCCCCCCCCCCCCCC(=O)OC(CC(=O)O)C[N+](C)(C)C (racemic) [Palmitoyl-DL-Carnitine chloride] | 110% | 
22 | COc1ccc2c(c1OC)C(=O)O[C@@H]2[C@H]1c2c(cc3c(c2OC)OCO3)CCN1C | 105% | 
23 | COc1ccc2c(c1OC)C(=O)O[C@@H]2[C@H]1c2c(cc3c(c2OC)OCO3)CCN1C [Noscapine hydrchloride] | 104% | 

Single entries from the list.
cell viability (compound concentration: 3 uM) with COc1ccc2c(c1)c(CC(=O)O)c(C)n2C(=O)c1ccc(Cl)cc1 [Indomethacin] is entered as 96.8 ± 5.8%
cell viability [1] [%] with COc1ccc(-c2cc(=O)c3c(O)c(OC)c(O[C@@H]4O[C@H](CO[C@@H]5O[C@@H](C)[C@H](O)[C@@H](O)[C@H]5O)[C@@H](O)[C@H](O)[C@H]4O)cc3o2)cc1 [Pectolinarin] is entered as 109

The results go on:

Row | SMILES | cell viability (compound concentration: 3 uM) | cell viability [1] [%]
24 | COc1ccc2c(c1OC)C(=O)O[C@@H]2[C@H]1c2c(cc3c(c2OC)OCO3)CCN1C [Noscapine hydrochloride hydrate  (Narcotine)] |  | 96
25 | CC(=O)NCCCS(=O)(=O)O | 114% | 
26 | O=C(CCc1ccc(O)cc1)c1c(O)cc(O)cc1O [Phloretin] | 107% | 94.8 ± 3.4
27 | CC[C@H](C)[C@H](N)C1=N[C@H](C(=O)N[C@@H](CC(C)C)C(=O)N[C@H](CCC(=O)O)C(=O)N[C@H](C(=O)N[C@H]2CCCCNC(=O)[C@H](CC(N)=O)NC(=O)[C@@H](CC(=O)O)NC(=O)[C@H](Cc3cnc[nH]3)NC(=O)[C@@H](Cc3ccccc3)NC(=O)[C@H]([C@@H](C)CC)NC(=O)[C@@H](CCCN)NC2=O)[C@@H](C)CC)CS1 [Bacitracin] | 113% | 
28 | CC[C@H](C)[C@H](N)C1=N[C@H](C(=O)N[C@@H](CC(C)C)C(=O)N[C@H](CCC(=O)O)C(=O)N[C@H](C(=O)N[C@H]2CCCCNC(=O)[C@H](CC(N)=O)NC(=O)[C@@H](CC(=O)O)NC(=O)[C@H](Cc3cnc[nH]3)NC(=O)[C@@H](Cc3ccccc3)NC(=O)[C@H]([C@@H](C)CC)NC(=O)[C@@H](CCCN)NC2=O)[C@@H](C)CC)CS1 | 106% | 
29 | CC(=O)NS(=O)(=O)c1ccc(NC(=O)c2ccccc2C(=O)O)cc1 | 112% | 
30 | CNC[C@H](O)c1ccc(O)c(O)c1 [(-)-Epinephrine bitartrate] | 100% | 
31 | CNC[C@H](O)c1ccc(O)c(O)c1 | 104% | 
32 | CN(C)CCN1C(=O)c2ccccc2N(C)c2ccccc21 [Dibenzepine hydrochloride] | 125% | 
33 | COc1ccc(OC)c(C(O)CNC(=O)CN)c1 (stereo not given) | 100% | 
34 | COc1ccc(OC)c(C(O)CNC(=O)CN)c1 (stereo not given) [Midodrine hydrochloride] | 103% | 
35 | CN1CCN(CCCN2c3ccccc3Sc3ccc(C(F)(F)F)cc32)CC1 | 101% and 97.5% | 
36 | CN1CCN(CCCN2c3ccccc3Sc3ccc(C(F)(F)F)cc32)CC1 [Trifluoperazine dihydrochloride] | 111.1 ± 1.1% | 
37 | CN1CCN(CCCN2c3ccccc3Sc3ccc(C(F)(F)F)cc32)CC1 [Trifluoperazine 2HCl] | 113% | 
38 | Nc1ccn([C@H]2CC[C@@H](CO)O2)c(=O)n1 [Zalcitabine] | 89% | 
39 | Nc1ccn([C@H]2CC[C@@H](CO)O2)c(=O)n1 | 97.1% | 
40 | Nc1ccn([C@H]2CC[C@@H](CO)O2)c(=O)n1 [2',3'-Dideoxycytidine] |  | 104
41 | Nc1ccn([C@H]2CC[C@@H](CO)O2)c(=O)n1 [2',3' - Dideoxycytidine] | 95.9% | 
42 | Nc1ccn([C@H]2CC[C@@H](CO)O2)c(=O)n1 [2',3'-dideoxycytidine] | 108% | 
43 | CN(C(=O)C(Cl)Cl)c1ccc(OC(=O)c2ccco2)cc1 [Diloxanide furoate] | 110% | 
44 | CN(C(=O)C(Cl)Cl)c1ccc(OC(=O)c2ccco2)cc1 | 105 ± 1.3% | 
45 | CC(C)(C#N)c1cc(Cn2cncn2)cc(C(C)(C)C#N)c1 | 93.8% | 
46 | CC(C)(C#N)c1cc(Cn2cncn2)cc(C(C)(C)C#N)c1 [Anastrozole] | 104 ± 4.2% | 

Row | SMILES | cell viability (compound concentration: 3 uM) | cell viability [1] [%]
47 | Oc1c(I)cc(Cl)c2cccnc12 | 101% | 
48 | Oc1c(I)cc(Cl)c2cccnc12 [Clioquinol] | 91.6% | 
49 | CN(C)CCOC(C)(c1ccccc1)c1ccccn1 (stereo not given) [Doxylamine succinate] | 104 ± 10% | 
50 | CN(C)CCOC(C)(c1ccccc1)c1ccccn1 (stereo not given) | 99.3 ± 2.2% | 
51 | CC(=O)c1ccc2c(c1)N(CCCN(C)C)c1ccccc1S2 [Acetopromazine maleate salt] | 114% | 
52 | CC(=O)c1ccc2c(c1)N(CCCN(C)C)c1ccccc1S2 | 104% | 
53 | COc1cccc(-c2cc(=O)c3ccccc3o2)c1N | 99.1% | 
54 | CCCCCCCCCCCCCCC[C@H](O)[C@H](N)CO (racemic) [DL-erythro-Dihydrosphingosine] | 91.9% | 
55 | CC(=O)[C@H]1CC[C@H]2[C@@H]3C=CC4=CC(=O)CC[C@@]4(C)[C@@H]3CC[C@]12C [Dydrogesterone] | 116% | 
56 | Cc1cc(=O)[nH]c(=S)[nH]1 | 109% | 
57 | Cc1cc(O)cc(O)c1 [Orcinol] |  | 91.3
58 | COc1ccc2c(CN(C)CCC#N)cc(=O)oc2c1 |  | 122
59 | COc1ccccc1OCC(O)CO (stereo not given) | 105% | 
60 | COc1ccccc1OCC(O)CO (stereo not given) [Guaifenesin] | 118 ± 23% | 
61 | CC[C@]1(O)C[C@H]2CN(CCc3c([nH]c4ccccc34)[C@@](C(=O)OC)(c3cc4c(cc3OC)N(C=O)[C@H]3[C@@](O)(C(=O)OC)[C@H](OC(C)=O)[C@]5(CC)C=CCN6CC[C@]43[C@@H]65)C2)C1 | 82.1 ± 8.7% | 
62 | CC[C@]1(O)C[C@H]2CN(CCc3c([nH]c4ccccc34)[C@@](C(=O)OC)(c3cc4c(cc3OC)N(C=O)[C@H]3[C@@](O)(C(=O)OC)[C@H](OC(C)=O)[C@]5(CC)C=CCN6CC[C@]43[C@@H]65)C2)C1 [Vincristine sulfate] | 95.7% | 
63 | CC[C@]1(O)C[C@H]2CN(CCc3c([nH]c4ccccc34)[C@@](C(=O)OC)(c3cc4c(cc3OC)N(C=O)[C@H]3[C@@](O)(C(=O)OC)[C@H](OC(C)=O)[C@]5(CC)C=CCN6CC[C@]43[C@@H]65)C2)C1 [Vincristine] | 93.8% | 
64 | NC[C@@H]1O[C@H](O[C@H]2[C@@H](O)[C@H](O[C@@H]3[C@@H](O)[C@H](N)C[C@H](N)[C@H]3O[C@H]3O[C@H](CO)[C@@H](O)[C@H](O)[C@H]3N)O[C@@H]2CO)[C@H](N)[C@@H](O)[C@@H]1O [Paromomycin sulfate] | 97.5 ± 11% | 
65 | NC[C@@H]1O[C@H](O[C@H]2[C@@H](O)[C@H](O[C@@H]3[C@@H](O)[C@H](N)C[C@H](N)[C@H]3O[C@H]3O[C@H](CO)[C@@H](O)[C@H](O)[C@H]3N)O[C@@H]2CO)[C@H](N)[C@@H](O)[C@@H]1O | 110% | 
66 | Cc1cccc(C)c1OCC(C)N (stereo not given) [Mexiletine hydrochloride] | 96.2% | 
67 | Cc1cccc(C)c1OCC(C)N (stereo not given) | 102% | 
68 | Cc1cccc(C)c1OCC(C)N (stereo not given) [Mexiletene hydrochloride] | 104% | 
69 | COc1ccccc1N1CCN(CCCCN2C(=O)c3ccccc3C2=O)CC1 [NAN-190 hydrobromide] | 111% | 

Reprinted at random: six records from the list.
Row | SMILES | cell viability (compound concentration: 3 uM) | cell viability [1] [%]
52 | CC(=O)c1ccc2c(c1)N(CCCN(C)C)c1ccccc1S2 | 104% | 
49 | CN(C)CCOC(C)(c1ccccc1)c1ccccn1 (stereo not given) [Doxylamine succinate] | 104 ± 10% | 
69 | COc1ccccc1N1CCN(CCCCN2C(=O)c3ccccc3C2=O)CC1 [NAN-190 hydrobromide] | 111% | 
67 | Cc1cccc(C)c1OCC(C)N (stereo not given) | 102% | 
53 | COc1cccc(-c2cc(=O)c3ccccc3o2)c1N | 99.1% | 
57 | Cc1cc(O)cc(O)c1 [Orcinol] |  | 91.3
